This is an account of results in publication PMC10928201.

Protein sequences, listed by entry. Tags and fused reporters are not part of them. Residues count along the entry.
UniProt Q7L5D6: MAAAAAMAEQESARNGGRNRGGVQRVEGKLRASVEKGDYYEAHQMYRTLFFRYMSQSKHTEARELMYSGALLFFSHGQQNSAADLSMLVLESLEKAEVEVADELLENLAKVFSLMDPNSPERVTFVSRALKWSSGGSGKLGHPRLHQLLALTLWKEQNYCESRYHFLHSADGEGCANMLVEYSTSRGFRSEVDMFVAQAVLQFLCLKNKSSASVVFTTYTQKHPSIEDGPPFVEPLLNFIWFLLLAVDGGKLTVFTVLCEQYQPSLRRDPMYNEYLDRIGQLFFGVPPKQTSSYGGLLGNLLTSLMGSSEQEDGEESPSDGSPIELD
UniProt P0DMV8: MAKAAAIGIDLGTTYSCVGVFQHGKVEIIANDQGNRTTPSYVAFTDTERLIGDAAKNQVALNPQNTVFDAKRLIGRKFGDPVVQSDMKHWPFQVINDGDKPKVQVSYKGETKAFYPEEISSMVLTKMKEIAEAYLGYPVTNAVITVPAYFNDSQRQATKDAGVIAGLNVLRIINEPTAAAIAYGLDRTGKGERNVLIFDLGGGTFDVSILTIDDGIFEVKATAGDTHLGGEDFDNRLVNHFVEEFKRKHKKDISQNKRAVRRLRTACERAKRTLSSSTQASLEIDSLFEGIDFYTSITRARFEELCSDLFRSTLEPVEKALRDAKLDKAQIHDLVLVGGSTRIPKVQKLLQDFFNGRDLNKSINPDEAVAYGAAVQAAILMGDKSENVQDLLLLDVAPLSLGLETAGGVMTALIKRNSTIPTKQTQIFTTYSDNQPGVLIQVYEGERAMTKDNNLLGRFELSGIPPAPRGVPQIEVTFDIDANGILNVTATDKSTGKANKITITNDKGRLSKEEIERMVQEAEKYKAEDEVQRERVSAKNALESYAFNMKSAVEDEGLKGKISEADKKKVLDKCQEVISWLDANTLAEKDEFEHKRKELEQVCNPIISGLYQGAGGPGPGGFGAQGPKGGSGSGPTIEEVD
UniProt P11142: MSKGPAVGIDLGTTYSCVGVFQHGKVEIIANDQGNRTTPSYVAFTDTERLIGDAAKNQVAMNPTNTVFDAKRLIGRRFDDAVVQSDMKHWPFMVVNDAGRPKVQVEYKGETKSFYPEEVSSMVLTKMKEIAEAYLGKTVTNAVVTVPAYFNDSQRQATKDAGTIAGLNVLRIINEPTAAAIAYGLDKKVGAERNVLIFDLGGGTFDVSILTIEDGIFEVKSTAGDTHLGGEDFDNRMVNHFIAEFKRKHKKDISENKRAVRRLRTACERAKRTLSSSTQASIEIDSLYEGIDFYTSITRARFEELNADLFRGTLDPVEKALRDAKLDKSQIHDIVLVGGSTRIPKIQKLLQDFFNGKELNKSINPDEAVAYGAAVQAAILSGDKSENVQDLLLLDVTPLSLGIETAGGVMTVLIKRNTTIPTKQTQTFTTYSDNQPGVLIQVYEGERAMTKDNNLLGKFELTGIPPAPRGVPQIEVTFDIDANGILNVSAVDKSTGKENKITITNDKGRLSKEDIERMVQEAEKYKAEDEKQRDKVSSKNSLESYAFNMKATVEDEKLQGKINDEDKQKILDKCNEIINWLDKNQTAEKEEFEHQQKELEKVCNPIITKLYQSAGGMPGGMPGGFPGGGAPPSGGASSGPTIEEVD
UniProt P38646, residues 47-679: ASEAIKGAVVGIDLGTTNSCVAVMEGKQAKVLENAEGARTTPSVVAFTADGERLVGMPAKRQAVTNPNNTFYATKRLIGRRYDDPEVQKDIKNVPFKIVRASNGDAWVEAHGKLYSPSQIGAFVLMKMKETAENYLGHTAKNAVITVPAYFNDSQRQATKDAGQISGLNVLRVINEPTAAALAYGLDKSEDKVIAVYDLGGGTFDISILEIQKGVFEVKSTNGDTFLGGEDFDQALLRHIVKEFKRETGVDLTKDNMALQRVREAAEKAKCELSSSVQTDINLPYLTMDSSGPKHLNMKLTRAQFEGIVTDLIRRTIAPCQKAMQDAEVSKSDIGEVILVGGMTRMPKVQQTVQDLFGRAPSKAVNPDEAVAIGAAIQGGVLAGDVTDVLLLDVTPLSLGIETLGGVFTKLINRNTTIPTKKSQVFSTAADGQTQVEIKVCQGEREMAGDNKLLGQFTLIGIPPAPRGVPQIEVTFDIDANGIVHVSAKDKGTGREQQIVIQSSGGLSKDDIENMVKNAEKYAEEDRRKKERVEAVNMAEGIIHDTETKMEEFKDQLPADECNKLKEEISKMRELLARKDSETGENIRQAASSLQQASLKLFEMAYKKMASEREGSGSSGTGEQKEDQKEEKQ

In assay [1] the target is GET4 (human (endogenous in HeLa)) (UniProt Q7L5D6). Briefly: affinity purification with mass spectrometry; anti-GET4 or anti-BAG6 antibody on Dynabeads (4 mg beads per IP) with ER-Mito reporter cell lysate; DIA mass spectrometry, control IP against GET4 or BAG6 IP, pairwise t tests with 5% FDR, N = 4.
In assay [2] the target is BAG6 (human (endogenous in HeLa)) (UniProt P46379). Described as above.

Results are given in words; binding and its absence hold for the method and conditions named. In cells and extracts the contact can be indirect. These calls come from enrichment with a bait or labelling near it, and not all partners need be listed.

Regarding HSPA1A (from UniProt P0DMV8 1-641), the binding result in assay [1] is listed as “binds”.

For HSPA8 (from UniProt P11142 1-646), the binding result in assay [2] and in assay [1] was “binds” throughout.

As for “glucose-regulated protein 75 (GRP75) (from UniProt P38646 47-679)”, the binding result in assay [2] is “binds”.

B1: UBL-containing protein 4 A (UBL4A) (protein, UniProt P11441 1-157)
chain: MQLTVKALQGRECSLQVPEDELVSTLKQLVSEKLNVPVRQQRLLFKGKALADGKRLSDYSIGPNSKLNLVVKPLEKVLLEEGEAQRLADSPPPQVWQLISKVLARHFSAADASRVLEQLQRDYERSLSRLTLDDIERLASRFLHPEVTETMEKGFSK
As to B1, the binding result in assay [1] was “binds”.
